Test results reported in patent US10624895B2, “Methods of sensitizing a patient with glioma to a therapeutic agent by administering small hairpin RNA targeting PDZ-RHOGEF” (THE TRANSLATIONAL GENOMICS RESEARCH INSTITUTE, priority 2016, dated 2020).
For some assays here: At least one read-out could not be matched to a standard name with certainty. For some assays here: At least one structure is not confirmed: it was looked up by name or label, or the drawing left a doubt.

How the values were obtained:
[1] = clinical trials for Alzheimer's disease and vascular dementia; cited from earlier work
T98G expressing TROY-HA = assay: Annexin V apoptosis by flow cytometry, temozolomide; assay type: cell-based, human; settings: T98G overexpressing TROY relative to control T98G, 250 μM TMZ, 48 h

SMILES | blood brain barrier permeability [1] | temozolomide induced apoptosis (T98G expressing TROY-HA)
CCCn1cnc2c1c(=O)n(CCCCC(C)=O)c(=O)n2C [PPF, 3-methyl-1-(5-oxohexyl)-7-propyl-3,7-dihydro-1H-purine-2,6-dione] | blood brain barrier permeability | 
Cn1nnc2c(C(N)=O)ncn2c1=O [temozolomide] |  | significantly more resistant
